# Measured values reported in PMC3486646.
# By UniProt entry, the sequences of proteins in these tests, tags left out. Where a name states a change or a piece, a line headed by the entry shows the natural chain unless it says otherwise. Residues count along the entry.
# UniProt O95793: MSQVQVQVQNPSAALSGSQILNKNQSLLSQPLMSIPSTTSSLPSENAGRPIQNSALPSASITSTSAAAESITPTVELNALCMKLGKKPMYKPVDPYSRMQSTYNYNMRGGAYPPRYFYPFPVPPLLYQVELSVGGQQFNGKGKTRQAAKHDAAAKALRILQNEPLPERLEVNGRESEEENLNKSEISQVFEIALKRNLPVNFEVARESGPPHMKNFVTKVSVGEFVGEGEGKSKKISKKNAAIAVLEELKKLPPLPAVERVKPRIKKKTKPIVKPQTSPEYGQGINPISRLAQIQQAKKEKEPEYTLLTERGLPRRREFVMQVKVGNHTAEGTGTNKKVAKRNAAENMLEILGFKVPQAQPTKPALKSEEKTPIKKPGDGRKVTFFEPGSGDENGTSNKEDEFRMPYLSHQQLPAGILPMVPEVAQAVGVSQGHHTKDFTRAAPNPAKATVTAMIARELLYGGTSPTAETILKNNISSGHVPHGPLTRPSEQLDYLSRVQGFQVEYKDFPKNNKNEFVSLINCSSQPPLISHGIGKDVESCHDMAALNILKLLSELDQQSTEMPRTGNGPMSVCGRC
# Staufen1-TAP: residues 82-577 of O95793
# UniProt O14980: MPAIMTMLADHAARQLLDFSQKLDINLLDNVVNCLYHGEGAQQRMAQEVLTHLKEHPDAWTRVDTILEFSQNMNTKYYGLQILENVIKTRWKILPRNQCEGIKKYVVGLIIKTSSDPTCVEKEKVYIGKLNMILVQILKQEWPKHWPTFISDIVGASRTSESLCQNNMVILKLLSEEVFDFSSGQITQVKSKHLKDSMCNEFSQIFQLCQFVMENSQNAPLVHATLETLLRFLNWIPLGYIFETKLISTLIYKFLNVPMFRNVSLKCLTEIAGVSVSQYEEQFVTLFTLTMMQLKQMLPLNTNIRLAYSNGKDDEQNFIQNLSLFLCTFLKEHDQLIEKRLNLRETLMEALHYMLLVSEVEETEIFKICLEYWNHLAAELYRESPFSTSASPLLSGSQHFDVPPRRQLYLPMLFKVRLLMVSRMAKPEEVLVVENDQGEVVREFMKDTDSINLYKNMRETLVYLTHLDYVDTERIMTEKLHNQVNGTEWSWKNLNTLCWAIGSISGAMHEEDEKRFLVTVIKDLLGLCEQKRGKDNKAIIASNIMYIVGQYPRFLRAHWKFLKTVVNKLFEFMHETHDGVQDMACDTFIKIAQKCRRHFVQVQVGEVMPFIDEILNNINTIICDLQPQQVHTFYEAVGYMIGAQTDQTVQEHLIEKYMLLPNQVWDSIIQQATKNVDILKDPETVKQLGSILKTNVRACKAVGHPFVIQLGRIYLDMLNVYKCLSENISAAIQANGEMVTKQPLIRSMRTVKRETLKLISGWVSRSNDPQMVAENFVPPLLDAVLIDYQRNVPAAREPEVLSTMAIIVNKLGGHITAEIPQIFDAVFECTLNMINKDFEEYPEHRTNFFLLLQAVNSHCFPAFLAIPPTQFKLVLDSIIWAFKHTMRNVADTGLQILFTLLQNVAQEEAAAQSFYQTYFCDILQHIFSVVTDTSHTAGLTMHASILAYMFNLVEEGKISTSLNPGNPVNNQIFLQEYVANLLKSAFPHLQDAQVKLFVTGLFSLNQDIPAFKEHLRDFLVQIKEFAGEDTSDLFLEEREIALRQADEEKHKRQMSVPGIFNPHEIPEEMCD
# UniProt P11940: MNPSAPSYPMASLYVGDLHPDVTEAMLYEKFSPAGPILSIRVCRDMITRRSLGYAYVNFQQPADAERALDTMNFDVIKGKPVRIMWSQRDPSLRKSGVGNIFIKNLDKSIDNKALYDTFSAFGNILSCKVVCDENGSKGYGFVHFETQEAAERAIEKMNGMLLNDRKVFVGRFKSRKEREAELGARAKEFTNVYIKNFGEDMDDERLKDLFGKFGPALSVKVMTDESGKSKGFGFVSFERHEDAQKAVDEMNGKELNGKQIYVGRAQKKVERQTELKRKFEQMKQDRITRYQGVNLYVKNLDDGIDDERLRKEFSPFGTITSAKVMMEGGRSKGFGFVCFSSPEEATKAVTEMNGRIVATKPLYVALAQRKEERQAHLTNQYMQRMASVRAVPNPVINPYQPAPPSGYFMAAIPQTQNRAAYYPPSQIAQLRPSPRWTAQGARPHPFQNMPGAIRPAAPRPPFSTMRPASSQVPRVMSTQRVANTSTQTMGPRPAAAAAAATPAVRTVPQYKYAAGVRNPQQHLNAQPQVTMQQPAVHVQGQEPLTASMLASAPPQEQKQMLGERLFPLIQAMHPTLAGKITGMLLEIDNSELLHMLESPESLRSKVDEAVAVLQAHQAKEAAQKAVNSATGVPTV
# These are yes or no findings as the source states them, for the method shown. Binding seen in cells or lysates may run through a third protein. Some results given as binding are weak or reduced against the parent protein; the word gives no strength.
# How the values were obtained:
# Staufen1-TAP = Staufen1-TAP (UniProt O95793); assay: pull-down; tandem affinity purification of Staufen1-TAP (IgG Sepharose, TEV cleavage, Calmodulin-affinity resin, EGTA elution) from lysates of stable 293T or Jurkat T cells, without or with HIV-1 (pNL4-3); eluates western blotted
# [1] = biological target: chromosomal regional maintenance protein 1 (human (endogenous in 293T and HeLa)) (UniProt O14980); assay: co-IP; CRM1, ABCE1, TDP-43, AUF1 or IMP1-VenusC (anti-GFP) immunoprecipitated from HeLa cell lysates; equal amounts of lysates treated with or without RnaseA for 30 min on ice before IP
binding (Staufen1-TAP),binding [1],Substance
binds,,endogenous Staufen1^(55 kDa) (from UniProt O95793-2 1-496)
binds,,endogenous Staufen1^63 (63 kDa) (from UniProt O95793 1-577)
binds,,poly-A binding protein (from UniProt P11940 1-636)
,binds,Staufen1 (in the HeLa lysates used for immunoprecipitation) (from UniProt O95793 1-577)
